Data from patent US20260266848A1, “COMPOSITIONS AND METHODS FOR DIAGNOSING AND TREATING DYSTONIA” (Duke University, priority 2023, published 2026).
At least one compound was matched to its structure with a doubt left.

Tested on: WT MEF EVs
Assay: Quantitative LC-MS/MS proteomics of EVs from ISRIB-treated WT MEF cultures
Assay type: cell-based, mouse
Conditions: WT + ISRIB vs WT

O=C(COc1ccc(Cl)cc1)NC1CCC(NC(=O)COc2ccc(Cl)cc2)CC1 (stereo not drawn) [ISRIB, reference compound]
NO: ISRIB and DYT Parallel Direction, Brd4 (EV protein Brd4 (Q9ESU6)) | ISRIB and DYT Parallel Direction, Cdk11b (EV protein Cdk11b (P24788)) | ISRIB and DYT Parallel Direction, Cfdp1 (EV protein Cfdp1 (O88271)) | ISRIB and DYT Parallel Direction, Cstf1 (EV protein Cstf1 (Q99LC2)) | ISRIB and DYT Parallel Direction, Dcaf8 (EV protein Dcaf8 (Q8N7N5)) | ISRIB and DYT Parallel Direction, Edil3 (EV protein Edil3 (O35474)) | ISRIB and DYT Parallel Direction, Grwd1 (EV protein Grwd1 (Q810D6)) | ISRIB and DYT Parallel Direction, Heatr3 (EV protein Heatr3 (Q8BQM4)) | ISRIB and DYT Parallel Direction, Hmga2 (EV protein Hmga2 (P52927)) | ISRIB and DYT Parallel Direction, Kntc1 (EV protein Kntc1 (Q8C3Y4)) | ISRIB and DYT Parallel Direction, Lpar6 (EV protein Lpar6 (Q8BMC0)) | ISRIB and DYT Parallel Direction, Lsm4 (EV protein Lsm4 (Q9QXA5)) | ISRIB and DYT Parallel Direction, Naa50 (EV protein Naa50 (Q6PGB6)) | ISRIB and DYT Parallel Direction, Ndrg1 (EV protein Ndrg1 (Q62433)) | ISRIB and DYT Parallel Direction, P3h4 (EV protein P3h4 (Q8K2B0)) | ISRIB and DYT Parallel Direction, Pacsin3 (EV protein Pacsin3 (Q99JB8)) | ISRIB and DYT Parallel Direction, Rbm17 (EV protein Rbm17 (Q8JZX4)) | ISRIB and DYT Parallel Direction, Sbno1 (EV protein Sbno1 (Q689Z5)) | ISRIB and DYT Parallel Direction, Sec61b (EV protein Sec61b (Q9CQS8)) | ISRIB and DYT Parallel Direction, Srrm2 (EV protein Srrm2 (Q8BTI8)) | ISRIB and DYT Parallel Direction, Sumo1 (EV protein Sumo1 (P63166)) | ISRIB and DYT Parallel Direction, Tes (EV protein Tes (P47226)) | ISRIB and DYT Parallel Direction, Timp3 (EV protein Timp3 (P39876)) | ISRIB and DYT Parallel Direction, Unc119b (EV protein Unc119b (Q8C4B4))
